Screen size: about 400,000 compounds; about 13,000 (3.2%) were called active. This list was built around the results that the source calls inconclusive (neither active nor inactive); the mix of calls is not that of the screen. Calls follow the shape of the dose curve; as a rule, active = well fitted cell-killing curve with a large enough effect; inconclusive = small, poorly fitted or top-dose-only effect, or effect the other way; inactive = flat fitted curve, though single readings scatter. A potency beside an inconclusive call is a rough fit, not a confirmed value.
Experiment: qHTS assay for MDR1-selective chemotherapeutics: Primary screen using the drug-selected MDR subline cells KB-V1; also: nearly all actives have a fitted effect of over 60% in size
Conditions: KB-V1 MDR cells viability, CellTiter-Glo, 72 h; activity change, negative = cytotoxicity: at 46.1 µM (top of the series)
Method in brief: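 Luminescent ATP read-out (CellTiter-Glo, 10 min) measures survival of drug-selected KB-V1 MDR cells after 72 h, 37 degrees C compound exposure. Medium: phenol-red-free DMEM, 10% FBS. Values from fitted concentration-response curves.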
% is scaled to controls: 0 for no effect and ±100 for the full control effect; potency is read from the fitted curve at half-maximal effect.

| Compound | activity change, negative = cytotoxicity | Potency |
| --- | --- | --- |
| CN1CC(=O)N(CC(=O)Nc2ccc(Cl)c(C(F)(F)F)c2)c2ccccc2C1=O | inactive: -10.6% |  |
| O=C(NCc1csc(-c2cccs2)n1)c1ccccc1 |  | inconclusive: 29.1 µM [cytotoxic, single point] |
| Cc1cccc2cc(CN(CCCO)C(=O)Nc3ccc(Cl)cc3)c(=O)[nH]c12 |  | inconclusive: 25.9 µM [cytotoxic, partial curve, poor fit] |
| COc1ccccc1NC(=O)CCc1nnc2ccc(N3CCN(C)CC3)nn12 |  | inconclusive: 20.6 µM [rising, single point] |
| O=C(c1ccco1)N1CCN(C(=O)c2sccc2-c2ccccc2)CC1 |  | active: 11.6 µM |
| O=C(N/N=C/c1ccc[nH]1)c1ccccc1OCc1ccccc1Cl |  | inconclusive: 18.4 µM [cytotoxic, partial curve, poor fit] |
| Cc1ccc(S(=O)(=O)c2nc(-c3ccc(Cl)cc3)oc2N2CCCCCC2)cc1 | inactive: 0% |  |
| COc1ccc(OCCOCCOc2ccc(C)cc2[N+](=O)[O-])cc1 |  | inconclusive: 8.2 µM [cytotoxic, partial curve] |
| CCN(CC)S(=O)(=O)c1ccc(C(=O)N=c2sc3cccc(OC)c3n2C)cc1 |  | inconclusive: 0.0052 µM [rising, full curve] |
| O=[N+]([O-])c1cccc(Cn2cnc3c(=S)nc[nH]c32)c1 |  | inconclusive: 20.6 µM [rising, single point] |
| CCSc1nnc(NC(=O)C(CC)(C(F)(F)F)C(F)(F)F)s1 |  | inconclusive: 29.1 µM [cytotoxic, single point] |
| O=C(Nc1cccc(-c2cccc(Cl)c2)c1)C1CCN(Cc2ccccn2)CC1 | inactive: -9.08% |  |
| C=CCN1C(=O)C(Cc2cccc(C)c2)SC1=Nc1ccc(C(=O)O)cc1 (stereo not given) | inactive: 1.77% |  |
| COCCN(Cc1ccc(OC)cc1)c1c(C)nc2ccc(C(=O)Nc3ccc(NC(C)=O)cc3)cn12 | inactive: 4.54% |  |
| CCC(C)(C)NC(=O)C(c1ccc(C)cc1)N(Cc1ccco1)C(=O)Cn1nnc2ccccc21 (stereo not given) |  | inconclusive: 20.6 µM [cytotoxic, single point] |
| O=C(Nc1cccc2c1CCCC2)c1ccc(Cl)c([N+](=O)[O-])c1 |  | inconclusive: 32.6 µM [cytotoxic, single point] |
| Oc1ccc(Br)cc1-c1cc(-c2ccccc2F)[nH]n1 |  | inconclusive: 9.2 µM [cytotoxic, partial curve, poor fit] |
| O=C(COc1cccnc1[N+](=O)[O-])Nc1cccc(Br)c1 | inactive: 24.3% |  |
| Cc1cc(C)nc(NS(=O)(=O)c2ccc(N3C(=O)C4CCCCC4C3=O)cc2)n1 (stereo not given) |  | inconclusive: 2.59 µM [rising, partial curve, poor fit] |
| CCNc1nc(NC(C)C)nc(Oc2ccc(OCCOc3ccc(C)cc3)nn2)n1 |  | inconclusive: 18.4 µM [cytotoxic, partial curve] |
| COc1cccc(NC(=S)N(CCN(C)C)C(C)c2ccco2)c1 (stereo not given) |  | inconclusive: 23.1 µM [cytotoxic, partial curve, poor fit] |
| Cc1ccc(-n2ncc(C(=O)N3CCN(Cc4ccccc4)CC3)c2C2CCN(C(=O)OC(C)(C)C)CC2)c(C)c1 | inconclusive: -11.6% |  |
| CN(C(=S)Nc1ccc(F)cc1)C(c1ccccc1)c1ccccc1 |  | inconclusive: 29.1 µM [cytotoxic, single point] |

| Compound | activity change, negative = cytotoxicity | Potency |
| --- | --- | --- |
| Cc1ccccc1Nc1nc(-c2sc(NC(=O)c3ccco3)nc2C)cs1 | inactive: -13.4% |  |
| C(=C\c1ccccc1)/C=N/Nc1nc(N2CCCCC2)nc(N2CCCCC2)n1 |  | inconclusive: 29.1 µM [cytotoxic, single point] |
| COc1ccc(-n2nnnc2SCC(=O)N2CCCc3ccccc32)cc1OC |  | inconclusive: 23.1 µM [cytotoxic, partial curve] |
| Cc1ccc2sc(NNC(=O)C3COc4ccccc4O3)nc2c1C (stereo not given) | inactive: 0% |  |
| c1ccc(OCCSc2nnnn2C2CCCCC2)cc1 |  | inconclusive: 16.4 µM [cytotoxic, single point] |
| CC1=C(C(=O)N(C(C)C)C(C)C)CC(CC(=O)NCc2cccs2)C(=O)N1Cc1ccc(C(C)(C)C)cc1 (stereo not given) |  | inconclusive: 29.1 µM [cytotoxic, single point] |
| COc1ccc(NC(C)=O)cc1S(=O)(=O)NC(Cc1ccccc1)C(=O)NCc1ccccc1C (stereo not given) | inactive: -5.78% |  |
| Cc1ccc(C)c(S(=O)(=O)c2nnn3c2nc(NCc2ccc4c(c2)OCO4)c2sccc23)c1 | inactive: -18.1% |  |
| CC1CCN(Cc2c(C(=O)O)nnn2-c2nonc2N)CC1 | inactive: -20.1% |  |
| CCN(CC)c1nc(Nc2ccccc2)nc(Oc2ccc(C(=O)OC)cc2)n1 |  | inconclusive: 20.6 µM [cytotoxic, single point] |
| CCN(CC)Cc1c(C(=O)N/N=C/c2ccccn2)nnn1-c1nonc1N | inactive: 9.01% |  |
| COc1ccc(-c2nnc(SCC(=O)Nc3ccc(F)cc3)s2)cc1 | inactive: 4.2% |  |
| C=C1SC(=Nc2ccccc2Cl)N(C(=O)c2sc3ccccc3c2Cl)C1(C)C |  | inconclusive: 23.1 µM [cytotoxic, single point] |
| CCSc1ncc(Cl)c(C(=O)N2CCN(c3ccc(OC)cc3)CC2)n1 | inactive: -9.15% |  |
| O=C(N/N=C/c1ccc2cccc(OCc3ccccc3)c2n1)c1ccc(Br)cc1 |  | inconclusive: 25.9 µM [cytotoxic, single point] |
| O=C(NN1C(=O)C2C(C1=O)C1C=CC2C12CC2)c1ccccc1Cl (stereo not given) | inactive: 13.1% |  |
| O=C(/C=C/c1c(Cl)nc2ccccn12)N1CCN(c2ccccc2F)CC1 | inactive: 0% |  |
| COc1ccc(CNC(=O)Cn2nc([N+](=O)[O-])cc2C)cc1 |  | inconclusive: 29.1 µM [rising, single point] |
| CC(C)(C)C1CCC(OC(=O)CN2CCOCC2)CC1 (stereo not given) | inactive: 1.03% |  |
| Cn1c(N)c(C(=O)COC(=O)Cn2cc(C(F)(F)F)ccc2=O)c(=O)n(C)c1=O |  | inconclusive: 29.1 µM [rising, single point] |
| CCOc1ccc(C=Nc2ccc(/C=C/c3ccnc4ccccc34)cc2)cc1OCC | inactive: 12.8% |  |
| CCCc1cc(NC(=O)COC(=O)c2ccc(O)cc2O)n(-c2ccccc2)n1 |  | inconclusive: 13 µM [cytotoxic, partial curve] |

Part of the list above, as labelled records:
CC(C)(C)C1CCC(OC(=O)CN2CCOCC2)CC1 (stereo not given)
  activity change, negative = cytotoxicity: inactive: 1.03%
Cn1c(N)c(C(=O)COC(=O)Cn2cc(C(F)(F)F)ccc2=O)c(=O)n(C)c1=O
  Potency: inconclusive: 29.1 µM [rising, single point]

— PubChem BioAssay AID1347076 (National Center for Advancing Translational Sciences (NCATS), 2019)
